From patent publication CN115772220A come the findings set out here.

Amino acid sequences for entries named in this document (tags omitted). Residues count along the entry.
UniProt P01584, residues 117-269: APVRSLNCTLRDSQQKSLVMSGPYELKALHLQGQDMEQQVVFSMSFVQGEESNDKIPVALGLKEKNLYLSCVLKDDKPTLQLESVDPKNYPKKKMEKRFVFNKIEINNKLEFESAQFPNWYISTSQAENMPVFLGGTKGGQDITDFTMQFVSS

The target of the experiment is 重组人白介素-1β，R&D货号:840170 (recombinant human IL-1β standard of the sandwich ELISA) (human) (UniProt P01584). Description: double-antibody sandwich ELISA, 10A10 capture and 1F3-biotin detection, human IL-1β at 100pg/mL.

Results are given in words; binding and its absence hold for the method and conditions named. Some binding calls cover weakened binding; strength is not graded here.

B1: 兔单克隆抗体10A10 (rabbit monoclonal antibody 10A10 against human IL-1β) (antibody, V domains shown)
VH: QSVEESGGRLVTPGTPLTLTCTVSGFSLSTYAMSWVRQAPGKGLEWIGIISGSGNTAYASWAKGRFTISKTSTTVDLKMTSPTTEDTATYFCARSYEDYANIWGPGTLVTVSS
VL: AQVLTQTPSSVSAAVGGTVTINCQASQSLYNNNELSWYQQKPGQPPKLLIYKASTLASGVSSRFKGSGSGTQFTLTISGVQCDDAATYYCQGDYSCRIADCYAFGGGTEVVVKG
For B1, the binding result is recorded as “binds”.
